Results on 2 compounds are retold here after patent US20150030583A1, “Methods of Treating Serosal Cancer” (SLOAN KETTERING INSTITUTE FOR CANCER RESEARCH, priority 2011, published 2015).

The assay deals with Ovcar3-GTL catenae. Description: Ovcar3-GTL catena drug sensitivity / proliferation screen (alamarBlue, 384-well). (Alamar Blue is a resazurin reagent that responds to reducing activity.)
The mark [1] stands for this setting: read-out: IC50 (μM) No coat, pathway-specific inhibitors, catena cells without glycocalyx coat.
The mark [2] stands for this setting: read-out: IC50 (μM) With coat, pathway-specific inhibitors, catena cells with glycocalyx coat.

Read-outs that look alike come from different tables or passages of the source. Some results are limits rather than exact numbers.

Usually IC50 stands for the midpoint of a concentration-inhibition curve. For `O=C(CCCCCCC(=O)Nc1ccccc1)NO` [SAHA, Vorinostat], the IC50 reads like this: (24 h, read-out: IC50 (μM) Addition on Day 1, Ovcar3-GTL catenae, compound added one day after seeding (cells predominantly lacking a glycocalyx)) 1.5 µM; (144 h, read-out: IC50 (μM) Addition on Day 6, Ovcar3-GTL catenae, compound added six days after seeding (established or substantial glycocalyx)) 12 µM; under setting [1], 0.78 µM; under setting [2], 3.14 µM. The compound further showed a Fold resistance (increased resistance of catena cells with glycocalyx coat versus no coat) of 4 fold. Besides, under “ratio of IC50 day 6 to day 1, Ovcar3-GTL catenae”, the “Increase in Resistance Day6/Day 1” value came out at 8 fold.
For `CNC(=O)c1ccccc1Sc1ccc2c(/C=C/c3ccccn3)n[nH]c2c1` [Axitinib], the IC50 was 13.4 µM under setting [1] and > 25 µM under setting [2].
